Experimental data from article PMC12006758 (Frontiers in Chemistry, 2025).
≈ marks a conversion by molar mass, not a printed value.

Tested on: PC3 cancer cell line
Assay: MTT cell viability assay, PC3
Type: cell-based
Settings: Homo sapiens, read-out: IC50 PC3
Procedure: All cell lines were obtained from the Vacsera Cell Culture Library, Tissue Culture Unit, Cairo, Egypt, with ATCC certification. For further details, See Supplementary Appendix A in the supplementary data.
All cell lines were obtained from the Vacsera Cell Culture Library, Tissue Culture Unit, Cairo, Egypt, with ATCC certification.
Cells were cultured in DMEM (Invitrogen/Life Technologies) supplemented with 10% FBS (Hyclone), […] (Sigma), and 1% penicillin-streptomycin. Cells were seeded at a density of 1.2–1.8 × 10,000 cells per well in 96-well plates with 100 µL of complete growth medium […]. After 24 hours of incubation, 100 µL of serially diluted sterile test compounds were added to achieve final concentrations ranging from 0.01 to 100 µM, with growth media serving as the negative control. Following another 24-hour incubation, supernatants were removed, and cells were prepared for MTT testing.
Each experiment included a blank control with complete media but no cells. […] Reconstituted MTT was added to the culture medium at 10% of its volume, and cultures were incubated for 2 to 4 hours, depending on cell type and density.
Absorbance was measured spectrophotometrically at 570 nm, with background absorbance at 690 nm subtracted. Data from all experiments were recorded, and cell viability percentages were calculated.

## CN[C@@H]1C[C@H]2O[C@@](C)([C@@H]1OC)n1c3ccccc3c3c4c(c5c6ccccc6n2c5c31)C(=O)NC4 [Staurosporine]
  IC50: 1.2 µg/mL (≈ 2.57 µM)
